Consider 18 compounds from PubChem BioAssay AID493014 (National Center for Advancing Translational Sciences (NCATS), 2011).

The list shows a part of the results. Shown are side measurements of this screen, not its main read-out; they come without a call. The list favours compounds with an active or inconclusive main result. Potencies come from curve fits of mixed quality, noted in brackets.

As usually defined, the AC50 is the concentration giving half of the maximal activity seen.

The nature of the assay: qHTS Assay to Find Inhibitors of Chronic Active B-Cell Receptor Signaling. To be noted: ABC-DLBCL IkBa-CBG/CBR reporter, luminescence ratio (green luciferase fused to IkBa over red control in TMD8 lymphoma cells), 4 h. A digest of the protocol: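 Compounds up to 46 uM were incubated four hours with TMD8 cells whose green CBG68 luciferase is fused to IkappaBalpha; red CBR luminescence normalised the signal, and concentration-effect curves were fitted to fusion, red and ratio data.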
(Quantitative high-throughput screening tests each substance at several concentrations.)

Where [1] appears, read: measured here: CBR red luminescence, cell number.

Take `Nc1nc(-c2ccc(Cl)cc2)c(S(=O)(=O)c2ccccc2)s1`: the AC50 under setting [1] was 25.1 µM [falling, single point].

On to `COC(=O)c1ccccc1NC(=O)Nc1cc(C)ccn1`, for which the concentration at half-maximal activity (AC50) under setting [1] was 0.501 µM [rising, full curve, poor fit].

As to `CCn1c(C(=O)O)c(CC(=O)Nc2cccc(C(F)(F)F)c2)c2ccccc21`, the AC50 under setting [1] is 6.31 µM [rising, single point].

With `Cc1nc2ccc(-c3nc4cc(N)ccc4o3)cc2[nH]1`, the AC50 under setting [1] is 16.4 µM [falling, partial curve, poor fit].

Take `CCCc1ccc2oc(C(=O)NCCCN3CCOCC3)c(C)c2c1`: the AC50 under setting [1] is 11.2 µM [rising, partial curve].

With `C=C(C)COc1ccc(-c2nc(N)ncc2Oc2ccccc2OC)c(O)c1`, the AC50 under setting [1] was 10 µM [rising, partial curve, poor fit].

On to `Cc1ccc(NC(=O)C2CCCN(C(=O)c3ccc(Cl)cc3)C2)cc1C` (centres undefined), for which the AC50 under setting [1] is 0.447 µM [rising, full curve, poor fit].

With `CN(C)N=Nc1ccc(-c2cn(Cc3ccccc3)cn2)cc1`, the AC50 under setting [1] is 8.91 µM [rising, partial curve].

For `Cc1sc(NC(=O)c2ccccc2)c(C(c2ccc(Cl)cc2)N2CCN(CCO)CC2)c1C` (centres undefined), the AC50 under setting [1] was 29.1 µM [falling, single point].

Regarding `CCc1nnc(NC(=O)c2c(O)c3cccc4c3n(c2=O)CC4)s1`, the concentration at half-maximal activity (AC50) under setting [1] is 13 µM [falling, partial curve, poor fit].

As for `O=C(CSc1ccc(F)cc1)NNC(=O)c1ccccc1Br`, the AC50 under setting [1] was 35.5 µM [falling, single point].

Take `Nc1nonc1-n1nnc(C(=O)N/N=C/c2ccncc2)c1CSc1ccccc1`: the AC50 under setting [1] was 20 µM [falling, single point].

On to `CC(=O)N1CN(Cc2ccccn2)Cc2c1sc1c2CCCC1`, for which the AC50 under setting [1] is 29.1 µM [rising, single point] and the AC50 (measured here: IkBa-CBG green luminescence) was 29.1 µM [falling, single point].

`CC(NC(=O)COC(=O)c1cc(Cl)nc(Cl)c1)c1ccccc1` (centres undefined): under setting [1], the AC50 was 12.6 µM [rising, single point].

Consider `Cc1ccc(C2=NN(CCC#N)C(=O)CO2)cc1`, for which, under setting [1], the AC50 is 35.5 µM [rising, single point].

Consider `Cc1ccc(S(=O)(=O)NC(=NCc2ccccc2)c2ccc(F)cc2)cc1`, for which the AC50 under setting [1] was 5.01 µM [falling, partial curve, poor fit].

Take `COc1ccc2c(=O)c3c(=O)n(Cc4ccco4)c(-c4ccccc4)nc3oc2c1`: the AC50 under setting [1] was 3.66 µM [falling, partial curve].

In the case of `Cc1ccc(Cl)cc1N1CCN(C(=O)c2noc(C(C)C)c2[N+](=O)[O-])CC1`, the AC50 under setting [1] is 8.91 µM [falling, partial curve].
